The list is a part of this screen's results and no random one: it is rich in T/C values a quarter to a half above the control, in often repeated tests (any T/C) and in doses without a T/C. Further doses and runs are listed elsewhere. T/C: endpoint of the treated group in % of that of the vehicle group. Some entries give survivors of the animals treated and no T/C: the source holds a T/C of zero for them, seemingly a mark for toxic or unscored doses. Some survivor counts are full or nearly so, which does not show that the dose was tolerated: the source hardly ever lists a survival T/C far under the control, and the zero likely stands for such cases as well. Counts of survivors are from the toxicity check (mostly the fifth day) where no day follows; animals may have died later. Schedule codes are those of the source, read here as Q, the interval in days (D) or hours (H), X, the number of doses. Some entries hold several experiments; the values are given in rising order. For survival time, the PubChem record calls one and a half times the control and up active, and a quarter to a half above the control has no call in these data; cut-offs in other NCI protocols can differ.
System: P388 leukemia ip, CD2F1 mice, survival T/C
Assay: NCI In Vivo Anticancer Drug Screen. Data for tumor model P388 Leukemia (intraperitoneal) in CD2F1 (CDF1) mice
Settings: T/C endpoint: median survival time, higher T/C = longer survival
[1] = dose: 100.0 mg/kg/injection, schedule: Q01DX009 (ip), vehicle: distilled water + Tween-80
[2] = dose: 200.0 mg/kg/injection, schedule: Q01DX005 (ip), vehicle: Klucel (hydroxypropylcellulose) (HPC)
[3] = dose: 50.0 mg/kg/injection, schedule: Q01DX009 (ip), vehicle: saline with Tween-80

**Q.** Which survivor count (dose: 30.0 mg/kg/injection, schedule: Q01DX005 (ip), vehicle: saline with Tween-80) does the source give for `CCOC(=O)c1c(O)c(Cc2ccccc2)c(=O)n2c1[nH]c1cc(C)c(C)cc12` here?
**A.** Its survivor count is 6 of 6.

**Q.** What about the survivor count (dose: 60.0 mg/kg/injection, schedule: Q01DX005 (ip), vehicle: saline with Tween-80) of the same compound?
**A.** Its survivor count is 6 of 6.

**Q.** What about the survivor count (dose: 120.0 mg/kg/injection, schedule: Q01DX005 (ip), vehicle: saline with Tween-80) of the same compound?
**A.** Its survivor count is 6 of 6.

**Q.** And the survivor count (dose: 240.0 mg/kg/injection, schedule: Q01DX005 (ip), vehicle: saline with Tween-80)?
**A.** The survivor count was 6 of 6.

**Q.** For `COc1ccc(C(OC)C2CCCCC2N2CCCCC2)cc1` (configuration not stated), which survivor count (dose: 3.13 mg/kg/injection, schedule: Q01DX009 (ip), vehicle: Klucel (hydroxypropylcellulose) (HPC)) is on record?
**A.** Its survivor count is 2 of 6.

**Q.** What about the survivor count (dose: 6.25 mg/kg/injection, schedule: Q01DX009 (ip), vehicle: Klucel (hydroxypropylcellulose) (HPC)) of the same compound?
**A.** The survivor count was 0 of 6.

**Q.** And the survivor count (dose: 12.5 mg/kg/injection, schedule: Q01DX009 (ip), vehicle: Klucel (hydroxypropylcellulose) (HPC))?
**A.** Its survivor count is 0 of 6.

**Q.** What about the survivor count (dose: 25.0 mg/kg/injection, schedule: Q01DX009 (ip), vehicle: Klucel (hydroxypropylcellulose) (HPC)) of the same compound?
**A.** Its survivor count is 0 of 6.

**Q.** And the survivor count (dose: 50.0 mg/kg/injection, schedule: Q01DX009 (ip), vehicle: Klucel (hydroxypropylcellulose) (HPC))?
**A.** Its survivor count is 2 of 6.

**Q.** And the survivor count (dose: 100.0 mg/kg/injection, schedule: Q01DX009 (ip), vehicle: Klucel (hydroxypropylcellulose) (HPC))?
**A.** Its survivor count is 0 of 6.

**Q.** What about the survivor count (dose: 200.0 mg/kg/injection, schedule: Q01DX009 (ip), vehicle: Klucel (hydroxypropylcellulose) (HPC)) of the same compound?
**A.** Its survivor count is 0 of 6.

**Q.** `Cc1cc(NC(=S)SCc2ccc3c(c2)OCO3)ccc1Br` was tested. Which T/C (dose: 200.0 mg/kg/injection, schedule: Q01DX009 (ip), vehicle: Klucel (hydroxypropylcellulose) (HPC), evaluated on day 20) did it give?
**A.** Its T/C is 127 % of control.

**Q.** And the T/C (dose: 200.0 mg/kg/injection, schedule: Q01DX009 (ip), vehicle: Klucel (hydroxypropylcellulose) (HPC), evaluated on day 30)?
**A.** Its T/C is 127 % of control.

**Q.** Which T/C [1] does the source give for `CC[As](CC)SC1CCC2(C)C(=CCC3C4CCC(=O)C4(C)CCC32)C1` (configuration not stated) here?
**A.** Its T/C is 139 % of control.

**Q.** And the survivor count (dose: 200.0 mg/kg/injection, schedule: Q01DX009 (ip), vehicle: distilled water + Tween-80)?
**A.** The survivor count was 2 of 6 and 3 of 6.

**Q.** With `CC1C2=C(CN(C)CC2)c2ccccc21` (configuration not stated) as the compound, how does the survivor count (dose: 50.0 mg/kg/injection, schedule: Q01DX005 (ip), vehicle: saline with Tween-80) read?
**A.** The survivor count was 1 of 6.

**Q.** And the survivor count (dose: 100.0 mg/kg/injection, schedule: Q01DX005 (ip), vehicle: saline with Tween-80)?
**A.** The survivor count was 0 of 6.

**Q.** And the survivor count (dose: 200.0 mg/kg/injection, schedule: Q01DX005 (ip), vehicle: saline with Tween-80)?
**A.** The survivor count was 0 of 6.

**Q.** For `NC(=S)NN=C(C1CC1)C1CC1`, which survivor count (dose: 25.0 mg/kg/injection, schedule: Q01DX005 (ip), vehicle: Klucel (hydroxypropylcellulose) (HPC)) is on record?
**A.** Its survivor count is 0 of 6.

**Q.** What about the survivor count (dose: 50.0 mg/kg/injection, schedule: Q01DX005 (ip), vehicle: Klucel (hydroxypropylcellulose) (HPC)) of the same compound?
**A.** The survivor count was 0 of 6.

**Q.** What about the survivor count (dose: 100.0 mg/kg/injection, schedule: Q01DX005 (ip), vehicle: Klucel (hydroxypropylcellulose) (HPC)) of the same compound?
**A.** Its survivor count is 0 of 6.

**Q.** And the survivor count [2]?
**A.** The survivor count was 0 of 6.

**Q.** What does the source list for `Cn1cc(C2NC(=O)c3ccccc3N2)c2ccccc21` (configuration not stated)?
**A.** T/C (dose: 133.0 mg/kg/injection, schedule: Q01DX005 (ip), vehicle: Klucel (hydroxypropylcellulose) (HPC)): 139 % of control; T/C [2]: 145 and 146 % of control; survivor count (dose: 400.0 mg/kg/injection, schedule: Q01DX005 (ip), vehicle: Klucel (hydroxypropylcellulose) (HPC)): 5 of 5

**Q.** `CCOC(=O)c1ccc(NC(=O)Nc2nncs2)cc1` was tested. Which T/C (dose: 25.0 mg/kg/injection, schedule: Q01DX009 (ip), vehicle: distilled water + Tween-80) did it give?
**A.** The T/C was 128 % of control.

**Q.** What about the T/C (dose: 50.0 mg/kg/injection, schedule: Q01DX009 (ip), vehicle: distilled water + Tween-80) of the same compound?
**A.** The T/C was 140 % of control.

**Q.** What about the T/C [1] of the same compound?
**A.** The T/C was 134 % of control.

**Q.** How did the T/C (dose: 25.0 mg/kg/injection, schedule: Q01DX009 (ip), vehicle: saline) turn out when `CCOC(=O)/C(C#N)=N/O` was run?
**A.** Its T/C is 125 % of control.

**Q.** For `C[n+]1cccc(SC2CCC3CC4CC3C2C4)c1` (configuration not stated), which survivor count [3] is on record?
**A.** Its survivor count is 5 of 6.

**Q.** How did the survivor count (dose: 25.0 mg/kg/injection, schedule: Q01DX009 (ip), vehicle: saline with Tween-80) turn out when `O=C1C2CC=CCC2C(=O)N1SC(Cl)(Cl)Cl` (configuration not stated) was run?
**A.** The survivor count was 1 of 6.

**Q.** And the survivor count [3]?
**A.** The survivor count was 0 of 6.

**Q.** What about the survivor count (dose: 100.0 mg/kg/injection, schedule: Q01DX009 (ip), vehicle: saline with Tween-80) of the same compound?
**A.** Its survivor count is 0 of 6.

**Q.** What about the survivor count (dose: 200.0 mg/kg/injection, schedule: Q01DX009 (ip), vehicle: saline with Tween-80) of the same compound?
**A.** Its survivor count is 0 of 6.

**Q.** Which results are given for `O=C(c1cc(Cl)c(Cl)c([N+](=O)[O-])c1Cl)C(Cl)Cl`?
**A.** survivor count (dose: 100.0 mg/kg/injection, schedule: Q04DX003 (ip), vehicle: Klucel (hydroxypropylcellulose) (HPC)): 6 of 6; survivor count (dose: 200.0 mg/kg/injection, schedule: Q04DX003 (ip), vehicle: Klucel (hydroxypropylcellulose) (HPC)): 4 of 6; survivor count (dose: 400.0 mg/kg/injection, schedule: Q04DX003 (ip), vehicle: Klucel (hydroxypropylcellulose) (HPC)): 2 of 6

Source: PubChem BioAssay AID330 (DTP/NCI, 2004)
